Assay results reported in PubChem BioAssay AID540303 (National Center for Advancing Translational Sciences (NCATS), 2011).
The whole screen tested about 330,000 compounds, of which about 1,000 (0.3%) were called active. This list was built around the results that the source calls inconclusive (neither active nor inactive); the mix of calls is not that of the screen. Calls come from the whole dose curve; as a rule, active = well fitted inhibition curve with a large enough effect; inconclusive = small, poorly fitted or top-dose-only effect; inactive = no such curve, though single readings can be large or run the other way; tested in mouse RAW 264.7 cells. Where the call is inconclusive, the potency comes from a doubtful curve fit.

assay: qHTS for Inhibitors of Cell Surface uPA Generation; conditions: cell surface uPA generation assay; series mostly up to 38.3 µM; note: nearly all actives have a fitted effect of over 55% in size
Method in brief: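 RAW 264.7 cells (4000/well) were plated overnight at 37 C and then given compounds in a 1:5 series (up to 38.3 uM final) plus reagent for 24 h. Intracellular ATP was measured by ATP-Lite luminescence and stays elevated when uPA-dependent LF entry is blocked.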
Potency is the fitted concentration of half-maximal effect.

**Q.** With `O=C1C=C(c2ccc3c(c2)OCO3)CCC1` as the molecule, how does the Potency read?
**A.** inconclusive: 3.55 µM [inhibitor, partial curve, poor fit]

**Q.** With `COc1cccc(/C=N/NC(=O)c2ccc(=O)[nH]n2)c1O` as the molecule, how does the Potency read?
**A.** inconclusive: 12.6 µM [inhibitor, single point]

**Q.** With `CCOC(=O)C1CCCN(S(=O)(=O)c2ccc(S(=O)(=O)N(CC)CC)cc2)C1` (configuration not stated) as the molecule, how does the Potency read?
**A.** inconclusive: 2.24 µM [inhibitor, partial curve, poor fit]

**Q.** Which Potency does the source give for `COC(=O)c1ccc(C2/C(=C(/O)c3ccc(OC)cc3)C(=O)C(=O)N2Cc2ccco2)cc1` (configuration not stated) here?
**A.** inactive

**Q.** Which Potency does the source give for `Cc1cc2oc3ccc(NCCCn4ccnc4)cc3c(=O)c2cc1C` here?
**A.** inconclusive: 12.6 µM [inhibitor, partial curve, poor fit]

**Q.** For `Cc1ccccc1-c1nn(-c2ccc(F)cc2F)cc1CNCCN(C)C`, which Potency is on record?
**A.** inactive

**Q.** For `O=C(OCCOc1ccc(Cl)cc1)c1cc(S(=O)(=O)N2CCCCC2)ccc1N1CCOCC1`, which Potency is on record?
**A.** inconclusive: 7.94 µM [inhibitor, partial curve]

**Q.** With `COc1ccc(N2C3=C(CC4=C2CC(C)(C)CC4=O)C(=O)CC(C)(C)C3)cc1` as the molecule, how does the Potency read?
**A.** inconclusive: 17.8 µM [inhibitor, partial curve, poor fit]

**Q.** With `O=[N+]([O-])c1cc(C(F)(F)F)ccc1-n1nnc2ccccc21` as the molecule, how does the Potency read?
**A.** inconclusive: 28.2 µM [inhibitor, single point]

**Q.** Which Potency does the source give for `CCOC(=O)C#CC(CCc1ccccc1)OS(N)(=O)=O` (configuration not stated) here?
**A.** inconclusive: 35.5 µM [inhibitor, partial curve, poor fit]

**Q.** For `O=S(=O)(N/N=C\c1cccc(F)c1)c1ccccc1`, which Potency is on record?
**A.** inconclusive: 10 µM [inhibitor, partial curve, poor fit]

**Q.** For `Nc1ncnc2c1ncn2[C@@H]1O[C@H](CNCC#Cc2ccccc2)[C@@H](O)[C@H]1O`, which Potency is on record?
**A.** inconclusive: 25.1 µM [inhibitor, single point]

**Q.** Which Potency does the source give for `O=C(NNc1nc2cc3c(cc2s1)OCO3)c1ccc(F)cc1` here?
**A.** inactive

**Q.** With `O=C(Nc1ccc(O)cc1)C1CCCN1S(=O)(=O)c1ccc(F)cc1` (configuration not stated) as the molecule, how does the Potency read?
**A.** inconclusive: 11.2 µM [inhibitor, partial curve, poor fit]

**Q.** Which Potency does the source give for `CCCCc1cc(=O)oc2cc(C)cc(OCC(=O)Nc3ccccn3)c12` here?
**A.** inconclusive: 10 µM [inhibitor, partial curve, poor fit]

**Q.** With `O=C(CSc1nnc(-c2ccc3c(c2)OCO3)o1)Nc1c(F)cccc1F` as the molecule, how does the Potency read?
**A.** inconclusive: 2.24 µM [inhibitor, partial curve, poor fit]

**Q.** With `Cn1cccc1/C=C1\SC(=Nc2cccc(O)c2)NC1=O` as the molecule, how does the Potency read?
**A.** inconclusive: 11.2 µM [inhibitor, partial curve, poor fit]

**Q.** For `CC1CC(C)CN(C(=O)CSc2nnc(-c3ccc(F)cc3)o2)C1` (configuration not stated), which Potency is on record?
**A.** inactive

**Q.** With `CCN1CCN(C(=O)C(Cc2ccccc2)NC(=O)c2ccc(Cl)c(S(=O)(=O)N(C)C)c2)CC1` (configuration not stated) as the molecule, how does the Potency read?
**A.** inconclusive: 0.01 µM [inhibitor, partial curve, poor fit]

**Q.** For `COC1=C(C)C(O)=C(C(=O)/C=C/c2ccccc2)C(=O)C1(C)C`, which Potency is on record?
**A.** inconclusive: 8.91 µM [inhibitor, partial curve, poor fit]

**Q.** For `CCn1c(SCC(=O)NCc2ccco2)nc2c(c1=O)SC(C)C2` (configuration not stated), which Potency is on record?
**A.** inactive

**Q.** For `CN1CCc2c(sc3nc(SCC(=O)NCc4ccco4)n(-c4ccccc4)c(=O)c23)C1`, which Potency is on record?
**A.** inconclusive: 8.91 µM [inhibitor, single point]

**Q.** With `CC(=O)c1ccc(OCCCC(=O)NNC(=O)c2ccccn2)cc1` as the molecule, how does the Potency read?
**A.** inconclusive: 8.91 µM [inhibitor, single point]

**Q.** Which Potency does the source give for `COc1ccc(-c2cc(-c3ccc(O)cc3)nc(N)c2C#N)cc1` here?
**A.** inconclusive: 3.16 µM [inhibitor, partial curve, poor fit]

**Q.** With `Fc1cccc(Cc2noc(CN3CCSCC3)n2)c1` as the molecule, how does the Potency read?
**A.** inactive

**Q.** Which Potency does the source give for `CCOc1cccc(-c2c(C(=O)N/N=C(\C)c3ccccn3)nnn2-c2nonc2N)c1` here?
**A.** inconclusive: 1.12 µM [inhibitor, full curve, poor fit]

**Q.** Which Potency does the source give for `Cc1ccc(C(=O)COC(=O)c2cn3ccccc3n2)cc1` here?
**A.** inactive

**Q.** With `CSCC[C@@H](CO)NC(=O)c1ccc2nc(C3CCCCC3)oc2c1` as the molecule, how does the Potency read?
**A.** inconclusive: 0.0501 µM [inhibitor, full curve, poor fit]

**Q.** For `NC(=O)c1ccc2c(=O)n3c(-c4cc(Cl)c(N)c(Cl)c4)csc3nc2c1`, which Potency is on record?
**A.** active: 5.01 µM

**Q.** For `C=CCC1(CC=C)CCCN1C(=O)c1cc(COc2ccc(C)nc2)on1`, which Potency is on record?
**A.** inconclusive: 2.51 µM [inhibitor, partial curve, poor fit]

**Q.** Which Potency does the source give for `COc1ccccc1C(=O)Nc1ccc2c(c1)nc1n2CCN(C2CCCCC2)C1` here?
**A.** inconclusive: 12.6 µM [inhibitor, partial curve, poor fit]

**Q.** With `COc1ccc2c(=O)cc(-c3ccccc3F)oc2c1` as the molecule, how does the Potency read?
**A.** inconclusive: 7.94 µM [inhibitor, partial curve, poor fit]

**Q.** For `COc1ccccc1NS(=O)(=O)c1ccc(NC(=O)N2CCCCC2)cc1`, which Potency is on record?
**A.** inconclusive: 12.6 µM [inhibitor, single point]

**Q.** With `CC1=CC(C)(C)Nc2ccc(OC(=O)C(Cc3ccccc3)N3C(=O)c4ccccc4C3=O)cc21` (configuration not stated) as the molecule, how does the Potency read?
**A.** inactive

**Q.** With `S=C(Nc1ccc2c(c1)OCO2)N1CCN(Cc2ccco2)CC1` as the molecule, how does the Potency read?
**A.** active: 4.47 µM

**Q.** Which Potency does the source give for `Cc1nc2c(ccc3nc(NC(=O)Cc4ccccc4)sc32)s1` here?
**A.** inconclusive: 10 µM [inhibitor, single point]

**Q.** Which Potency does the source give for `O=C(Nc1ccccc1-c1ccccc1)c1ccccc1Br` here?
**A.** inactive

**Q.** Which Potency does the source give for `O=[N+]([O-])c1ccc(NCCNS(=O)(=O)c2ccccc2)c(C(F)(F)F)c1` here?
**A.** inactive

**Q.** Which Potency does the source give for `CC(C)CC(=O)Nc1ccc(C(=O)COC(=O)C2CCC2)cc1` here?
**A.** inactive

**Q.** For `Nc1nonc1-c1nc2ccccc2n1Cc1ccc(F)cc1Cl`, which Potency is on record?
**A.** inconclusive: 1.78 µM [inhibitor, partial curve, poor fit]

**Q.** For `CCN1CCN(c2ccc(S(=O)(=O)N3CCOCC3)cc2NC(=O)C2CCC(C(C)(C)C)CC2)CC1` (configuration not stated), which Potency is on record?
**A.** active: 4.47 µM

**Q.** For `Cc1c2cnn(CC(=O)NC3CCCC3)c(=O)c2c(C)n1Cc1ccccc1`, which Potency is on record?
**A.** inconclusive: 11.2 µM [inhibitor, single point]

**Q.** Which Potency does the source give for `COc1cc(C)c(NC(=O)COc2cccc3c2OC(C)(C)C3)cc1OC` here?
**A.** inconclusive: 7.94 µM [inhibitor, single point]

**Q.** Which Potency does the source give for `O=C(CSC(=S)N1CCOCC1)c1ccccc1` here?
**A.** inconclusive: 7.94 µM [inhibitor, partial curve, poor fit]

**Q.** With `CN(Cc1cccs1)S(=O)(=O)c1ccc(Cl)cc1F` as the molecule, how does the Potency read?
**A.** inconclusive: 2 µM [inhibitor, partial curve, poor fit]

**Q.** With `CCS(=O)(=O)Nc1ccc(-c2nc3cccnc3s2)cc1` as the molecule, how does the Potency read?
**A.** inconclusive: 11.2 µM [inhibitor, single point]

**Q.** For `CCOc1cc(C(=O)O/N=C(\N)c2ccccn2)cc(OCC)c1OCC`, which Potency is on record?
**A.** inconclusive: 12.6 µM [inhibitor, single point]

**Q.** Which Potency does the source give for `Cc1ccc(C(=O)OCC(=O)N(C)c2ccccc2)c(C)c1` here?
**A.** inactive

**Q.** Which Potency does the source give for `COc1cccc(C(=O)Nc2nnc(-c3cccs3)o2)c1` here?
**A.** inconclusive: 12.6 µM [inhibitor, single point]

**Q.** Which Potency does the source give for `COc1cc2sc3cc(NCCCN4CCOCC4)ccc3c(=O)c2cc1OC` here?
**A.** inconclusive: 12.6 µM [inhibitor, single point]

**Q.** Which Potency does the source give for `CN(Cc1ccccc1)CC(O)COc1ccc(CNCc2cc3ccccc3s2)cc1` (configuration not stated) here?
**A.** active: 10 µM

**Q.** Which Potency does the source give for `CCOc1ccc(-c2c(C(=O)N/N=C/c3cccnc3)nnn2-c2nonc2N)cc1` here?
**A.** inactive

**Q.** Which Potency does the source give for `Cc1[nH]n(-c2ccccc2)c(=O)c1/C=N/NC(=O)C(C)C` here?
**A.** inconclusive: 11.2 µM [inhibitor, single point]

**Q.** With `CC(Sc1nnc2n1CCCCC2)C(=O)Nc1ccc(S(N)(=O)=O)cc1` (configuration not stated) as the molecule, how does the Potency read?
**A.** inactive

**Q.** For `CC(C)(C)NC(=O)C(c1ccncc1)N(Cc1ccco1)C(=O)c1ccc(-c2ccccc2)[nH]1` (configuration not stated), which Potency is on record?
**A.** inconclusive: 12.6 µM [inhibitor, single point]

**Q.** For `CN(c1ccc(O)cc1)c1nc(O)c(C2=c3ccccc3=NC2=O)s1`, which Potency is on record?
**A.** inactive

**Q.** For `c1ccc(COc2ccc(Nc3ncnc4nc[nH]c34)cc2)cc1`, which Potency is on record?
**A.** inconclusive: 11.2 µM [inhibitor, partial curve, poor fit]

**Q.** Which Potency does the source give for `COc1ccc(-n2c(C)cc(C(=O)NC3CCCCC3)c2C)cc1` here?
**A.** inconclusive: 7.94 µM [inhibitor, partial curve, poor fit]

**Q.** For `N#CC1=C(N)Oc2n[nH]c(-c3cccs3)c2C1C1CCCCC1` (configuration not stated), which Potency is on record?
**A.** inactive

**Q.** Which Potency does the source give for `CCCCC(=O)Nc1c(-c2cccc(OC)c2)c(=O)c2ccccc2n1C` here?
**A.** inconclusive: 2.51 µM [inhibitor, full curve, poor fit]

**Q.** Which Potency does the source give for `O=[N+]([O-])CC(c1ccc(F)cc1)c1c[nH]c2ccccc12` (configuration not stated) here?
**A.** inconclusive: 6.31 µM [inhibitor, partial curve, poor fit]

**Q.** Which Potency does the source give for `COc1ccc(Br)cc1S(=O)(=O)NCc1ccccn1` here?
**A.** inconclusive: 2.51 µM [inhibitor, single point]

**Q.** For `Cc1c(C)c2ccc(OCC(=O)Nc3nccs3)cc2oc1=O`, which Potency is on record?
**A.** inconclusive: 3.55 µM [inhibitor, partial curve]

**Q.** For `CC(OC(=O)CCN=C1NS(=O)(=O)c2ccccc21)C(=O)Nc1ccc(F)c(F)c1F` (configuration not stated), which Potency is on record?
**A.** inactive

**Q.** Which Potency does the source give for `COc1ccc(NC(=O)c2c(-c3c(Cl)cccc3Cl)noc2C)cn1` here?
**A.** inconclusive: 1.12 µM [inhibitor, partial curve, poor fit]

**Q.** For `CCn1c(=O)cc(SCC(=O)Nc2cccc(SC)c2)c2ccccc21`, which Potency is on record?
**A.** inactive

**Q.** With `C/C(=N\NC(=S)NC(C)C)c1ccc(Cl)c([N+](=O)[O-])c1` as the molecule, how does the Potency read?
**A.** inconclusive: 12.6 µM [inhibitor, single point]
